Laboratory results published in publication PMC3623771.

Chains of the proteins cited; added tags and fusions are not shown.
UniProt Q03135: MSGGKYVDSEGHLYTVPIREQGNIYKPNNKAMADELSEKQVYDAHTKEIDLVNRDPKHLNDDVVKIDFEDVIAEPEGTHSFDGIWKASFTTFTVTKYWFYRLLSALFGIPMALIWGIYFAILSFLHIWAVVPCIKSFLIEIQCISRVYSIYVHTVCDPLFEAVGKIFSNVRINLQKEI

Molecular target: Caveolin-1 (Cav1) (UniProt Q03135)
Assay: affinity purification with mass spectrometry; AGS/Cav1 cells infected for 16 h with H. pylori G27 (MOI = 100) or uninfected, lysed at room temperature in MES-buffered 1% (v/v) Triton-X100; precipitation with rabbit polyclonal Cav1 antiserum, silver-stained band (~95 kDa) analysed by MALDI-MS

binding: binds
B1: p120 Rho GTPase-activating protein/deleted in liver cancer-1 (p120RhoGAP/DLC1), variant 4 (protein, UniProt Q96QB1-4 1-1017)
chain: MKLEISPHRKRSDDSDEDEPCAISGKWTFQRDSKRWSRLEEFDVFSPKQDLVPGSPDDSHPKDGPSPGGTLMDLSERQEVSSVRSLSSTGSLPSHAPPSEDAATPRTNSVISVCSSSNLAGNDDSFGSLPSPKELSSFSFSMKGHEKTAKSKTRSLLKRMESLKLKSSHHSKHKAPSKLGLIISGPILQEGMDEEKLKQLNCVEISALNGNRINVPMVRKRSVSNSTQTSSSSSQSETSSAVSTPSPVTRTRSLSACNKRVGMYLEGFDPFNQSTFNNVVEQNFKNRESYPEDTVFYIPEDHKPGTFPKALTNGSFSPSGNNGSVNWRTGSFHGPGHISLRRENSSDSPKELKRRNSSSSMSSRLSIYDNVPGSILYSSSGDLADLENEDIFPELDDILYHVKGMQRIVNQWSEKFSDEGDSDSALDSVSPCPSSPKQIHLDVDNDRTTPSDLDSTGNSLNEPEEPSEIPERRDSGVGASLTRSNRHRLRWHSFQSSHRPSLNSVSLQINCQSVAQMNLLQKYSLLKLTALLEKYTPSNKHGFSWAVPKFMKRIKVPDYKDRSVFGVPLTVNVQRTGQPLPQSIQQAMRYLRNHCLDQVGLFRKSGVKSRIQALRQMNEGAIDCVNYEGQSAYDVADMLKQYFRDLPEPLMTNKLSETFLQIYQYVPKDQRLQAIKAAIMLLPDENREVLQTLLYFLSDVTAAVKENQMTPTNLAVCLAPSLFHLNTLKRENSSPRVMQRKQSLGKPDQKDLNENLAATQGLAHMIAECKKLFQVPEEMSRCRNSYTEQELKPLTLEALGHLGNDDSADYQHFLQDCVDGLFKEVKEKFKGWVSYSTSEQAELSYKKVSEGPPLRLWRSVIEVPAVPEEILKRLLKEQHLWDVDLLDSKVIEILDSQTEIYQYVQNSMAPHPARDYVVLRTWRTNLPKGACALLLTSVDHDRAPVVGVRVNVLLSRYLIEPCGPGKSKLTYMCRVDLRGHMPEWYTKSFGHLCAAEVVKIRDSFSNQNTETKDTKSR

Results are given in words; binding and its absence hold for the method and conditions named. In cells and extracts the contact can be indirect. Here binding means that the protein was enriched with, or labelled near, the bait; the list need not be complete.
